Percent effect of library compounds

The values are deposited in ChEMBL (CHEMBL3988442, “University of Dundee, Small-Polar-MMV Screening Library” (2021)).

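Assay of Toxoplasma gondii numbers, read through their beta-galactosidase reporter with a colour substrate. Concentration: 50 µM. Higher reads as fewer parasites (inferred from which compounds were picked for retests). About 18,000 compounds were tested under these conditions; 0.94% (about 170) showed 50% or more at least once.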

Values are the deposited “Percent Effect”, in %.
The record does not define 0% and 100%; most values in the screen are far below 50% and negative numbers occur (in some assays of this library far below -100).
Compounds were drawn at random from those tested, without regard to their results.

| compound | percent effect |
|---|---|
| `CCc1[nH]c(C(C)(N)CC)nc(=O)c1C` (stereo not drawn) | -7.989% |
| `CCN(Cc1c(C)nn(CC)c1C)CC(O)CO` (stereo not drawn) | -1.391% |
| `CSCC[C@H](N)C(=O)OC(C)(C)C` | 2.714% |
| `CCC1=NOC(C(=O)N2CCC(c3nnc[nH]3)CC2)C1` (stereo not drawn) | -1.109% |
| `COc1ccc(-c2nc(CN)cs2)cc1` | -0.106% |
| `CC(C)CC(N)C(=O)N(C)C` (stereo not drawn) | 5.34% |
| `CCN1CCCN(CC(=O)NC(C)(C#N)C(C)C)CC1` (stereo not drawn) | 14.24% |
| `CN(Cc1cccnc1)CC(C)(CO)CO` | -7.951% |
| `COCCNC(=O)Nc1ccc2c(c1)OC(C)(C)O2` | -1.117% |
| `CN(Cc1ccnn1C)S(=O)(=O)c1cccs1` | -0.4248% |
| `CCn1cc(C(=O)NCCCC(N)=O)c2ccccc21` | -17.15% |
| `CNC(=O)c1cccnc1NC1CC=CC1` | -8.637% |
| `COc1ccc(NC(=O)C(C)n2cncn2)cc1F` (stereo not drawn) | -1.012% |
| `O=C(NCc1ccccc1)c1cn(C2CNC2)nn1` | -0.2705% |
| `COc1cc(CNC(=O)CSc2nccn2C)ccn1` | -18.99% |
| `COC(=O)c1ccc(CNC(C)=O)c(Br)c1` | 0.9025% |
| `CN(Cc1ccc(Br)s1)CC(O)COCCO` (stereo not drawn) | -5.454% |
| `Cc1ccc(C(=O)N2CCOCC2CO)c(C)n1` (stereo not drawn) | -9.26% |
| `O=c1ccccn1CCO` | -23.16% |
| `O=C1CN(C(=O)c2ccn(-c3ccccc3)n2)CCN1` | -5.938% |
| `CCn1cc(Br)c(=O)c(NC(=O)C(C)COC)c1` (stereo not drawn) | 28.09% |
| `Cc1cnc(CNCC2(O)CNCCOC2)cn1` (stereo not drawn) | 8.165% |
| `CCOC(=O)NCCC(=O)N(C)Cc1cnn(C)c1` | 2.075% |
| `Cc1noc(CNC(=O)c2cccnc2N(C)C)n1` | -6.226% |
| `CNC1CCc2nnc(C)n2CC1` (stereo not drawn) | -7.52% |
| `Cc1ccccc1C(=O)NC1CCN(CCCO)CC1` | -26.13% |
| `Cc1nnc2n1N=C(c1cccs1)CS2` | -17.29% |
| `CN(Cc1nc(-c2ccc(F)cc2)cs1)CC(O)CO` (stereo not drawn) | 41.37% |
| `COC(=O)c1ccc(C(O)C(F)F)cc1` (stereo not drawn) | -17.24% |
| `Cc1nc(C(C)C)ccc1CO` | 7.351% |
| `CS(=O)(=O)NC1CCCN(Cc2nnnn2C2CC2)C1` (stereo not drawn) | -2.927% |
| `CCn1ncnc1CN1CCC(CN)C1` (stereo not drawn) | 15.71% |
| `CNC(=O)[C@@H](C)NC(=O)c1ccc(-c2ccc(C)o2)s1` | -11.29% |
| `NC1CCCN(C2CCCCC2)C1=O` (stereo not drawn) | 2.885% |
| `CNC1CN(C(=O)OC(C)(C)C)C1` | -10.61% |
| `CCCN(CCO)Cc1nc(CC(C)C)no1` | -5.401% |
| `Cc1nc(C(=O)NCCN2CCCC2)c(C)s1` | 15.63% |
| `CC(NC(=O)Cn1ncn(C)c1=O)c1cccs1` (stereo not drawn) | -3.077% |
| `Cc1nn(CCO)c(C)c1CNCCNS(C)(=O)=O` | 30.53% |
| `COc1cccc(CNC(=O)C(C)n2ccnc2)c1` (stereo not drawn) | -18.13% |
| `CCOc1cccc2c1CCC2N` (stereo not drawn) | 1.35% |
| `Cc1ccc(C2CSCCN2)o1` (stereo not drawn) | -3.388% |
| `CC(C)(C)NC(=O)N1CCNCC1` | -19.79% |
| `O=C(NCCO)Nc1nc2ccccc2s1` | 9.255% |
| `O=C(NCCN1CCCCC1)c1cc(C2CC2)[nH]n1` | -4.501% |
| `CCCN1CCC(NCCc2ccccn2)CC1` | 10.09% |
| `COC(=O)CNC(=O)c1cc(Br)ccc1OC(F)F` | -16.11% |
| `NCc1noc(-c2cccs2)n1` | -5.843% |
| `CCCOC1CCCNC1` (stereo not drawn) | 11.31% |
| `CCc1nnsc1C(=O)N(C)Cc1ccc(C#N)cc1` | -9.31% |
| `CC[C@@H](O)CN1CCOCC1CC(=O)c1ccccc1` (stereo partly drawn) | 5.66% |
| `COc1cc(CC(=O)NCCNC(C)=O)ccc1C` | 7.237% |
| `COCCN(CCOC)Cc1cc(-c2ccco2)on1` | -2.025% |
| `COc1ccc(C(=O)NCc2ncnn2C)cc1Br` | 12.4% |
| `Cc1nc(CN2CCC[C@H]2C(=O)N2CCOCC2)cs1` | 6.402% |
| `O=C(c1ccc(-n2ccnc2)cc1)N1CCOCC1` | 13.59% |
| `CC(C)(CNC(=O)C(C)(C)C)CNC(=O)C(C)(C)C` | -12.06% |
| `CNCc1nc(C)cs1` | -24.03% |
| `O=C(NC1CCCNC1)c1coc2ccccc12` (stereo not drawn) | 12.7% |
| `N#Cc1cccc(CN)c1` | -1.317% |
| `O=S(=O)(CCO)c1ccc(Br)cc1` | -0.798% |
| `Cc1cc(C)c(C(=O)N2CCOCC(CO)C2)c(=O)[nH]1` (stereo not drawn) | 6.197% |
| `CCn1cc(CN2CC(C)OCC2(C)C)cn1` (stereo not drawn) | 0.134% |
| `c1coc(CNCc2ccc3c(c2)OCCO3)c1` | 3.086% |
| `Cc1cnc(N2CCC(O)CC2)c(Br)c1` | 1.255% |
| `CC(c1cccc(O)c1)N(C)C(=O)c1ccncc1F` (stereo not drawn) | 3.383% |
| `CC(N)c1ccc(Br)cc1OCCO` (stereo not drawn) | 9.408% |
| `CNC(=O)c1cc(OC2CCCNC2)ccn1` (stereo not drawn) | -10.34% |
| `COc1ccc(NC(=O)c2ccc(S(N)(=O)=O)o2)cc1` | -5.386% |
| `O=C(CCn1cccc1)N1CCn2nc(CO)cc2C1` | 5.86% |
| `Nc1ccc(N2CCNCC2=O)cn1` | -4.29% |
| `Cc1cc(C)n(-c2ccc(C(=O)NC(C)(C)C)cn2)n1` | -15.74% |
| `CC(=O)N1CCc2c(F)ccc(F)c2C1` | -1.836% |
| `NC(=O)c1ccc(S(N)(=O)=O)s1` | -15.21% |
| `NCc1ccnc(N)c1` | 23.01% |
| `COc1ccc(CN2CCOC(C(N)=O)C2)cn1` (stereo not drawn) | -1.542% |

The first 4 entries again:

compound	percent effect
CCc1[nH]c(C(C)(N)CC)nc(=O)c1C (stereo not drawn)	-7.989%
CCN(Cc1c(C)nn(CC)c1C)CC(O)CO (stereo not drawn)	-1.391%
CSCC[C@H](N)C(=O)OC(C)(C)C	2.714%
CCC1=NOC(C(=O)N2CCC(c3nnc[nH]3)CC2)C1 (stereo not drawn)	-1.109%